Laboratory results published in PubChem BioAssay AID624415 (National Center for Advancing Translational Sciences (NCATS), 2012).
The whole screen tested about 390,000 compounds, of which about 60 (0.02%) were called active. The shares of active, inactive and inconclusive entries below differ from those in the screen. Cut-off read from the data, not from the text of the source: active = activity change below about -50%; inconclusive = between about -30% and that limit; inactive = weaker than that.

By UniProt entry, the sequences of proteins in these tests, tags left out.
UniProt Q9GZU1, whole entry, looked up: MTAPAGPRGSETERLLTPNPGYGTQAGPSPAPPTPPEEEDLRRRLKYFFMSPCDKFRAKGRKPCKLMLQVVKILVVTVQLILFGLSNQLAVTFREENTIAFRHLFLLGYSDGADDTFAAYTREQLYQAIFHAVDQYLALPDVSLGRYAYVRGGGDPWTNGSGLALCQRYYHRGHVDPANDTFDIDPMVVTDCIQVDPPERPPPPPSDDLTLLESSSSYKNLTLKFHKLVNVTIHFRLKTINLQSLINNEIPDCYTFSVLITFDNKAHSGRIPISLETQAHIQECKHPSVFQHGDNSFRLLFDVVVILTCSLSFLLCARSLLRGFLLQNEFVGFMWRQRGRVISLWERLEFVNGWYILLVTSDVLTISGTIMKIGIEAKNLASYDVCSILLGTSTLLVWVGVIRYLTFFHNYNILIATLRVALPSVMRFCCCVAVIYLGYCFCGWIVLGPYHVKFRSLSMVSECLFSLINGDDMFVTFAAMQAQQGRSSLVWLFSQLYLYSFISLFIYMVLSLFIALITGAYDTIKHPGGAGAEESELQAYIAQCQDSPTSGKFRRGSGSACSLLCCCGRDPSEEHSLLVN

Biological target: Mucolipin-1 (Homo sapiens) (UniProt Q9GZU1)
Assay: qHTS for Inhibitors of the Human Mucolipin Transient Receptor Potential 1 (TRPML1);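 note: stimulus is agonist 54-4 at its EC80 concentration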
Settings: TRPML1-inducible cells, Ca2+ dye fluorescence, FDSS; active compounds read low; inhibition of EC80 agonist-evoked calcium signal
Summary of the method: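 TRPML1-DL cells, Tet-induced overnight (~16 h, 37 °C) at 1,500 cells/well, were loaded with Ca8 no-wash dye plus quencher for 45-90 min at room temperature. Compounds were pinned during FDSS kinetic reading; agonist 54-4 at EC80 (4 uM final) then added.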
% is set by controls: 0 for no effect and ±100 for the full control effect.

| Structure (SMILES) | activity change, negative = inhibition |
| --- | --- |
| O=C(NCc1cccc(Br)c1)c1ccc(-n2cnc3cccnc32)cc1 | inactive: -12.5% |
| COC(=O)[C@H](CC(C)C)NC(=O)N1CCN(c2cccc(C(F)(F)F)c2)CC1 | inconclusive: -34% |
| O=C(Cn1nc(C(F)(F)F)c2c1CCCC2)Nc1ccc(F)c(Cl)c1 | inactive: 10.8% |
| COc1ccc(-c2ccc(=O)n(CC(=O)Nc3ccc(N(C)C)cc3)n2)cc1 | inconclusive: -32.1% |
| O=C(Nc1ccc2ccccc2n1)c1ccc(Cl)cc1 | inconclusive: -33.8% |
| O=C(COC(=O)Cc1ccc(Br)cc1)NCc1ccccc1 | inactive: -3.29% |
| O=S(=O)(Cc1ccccc1)N1CCN(Cc2ccccc2)CC1 | inconclusive: -30.2% |
| CCOc1cc(CN2CCCC(CO)(Cc3ccc(F)cc3F)C2)ccc1OC (stereo not given) | inconclusive: -32.9% |
| O=c1/c(=C/c2ccco2)sc2n1CN(c1cccc(Br)c1)CN=2 | inconclusive: -30.8% |
| Cc1c(/C=N/NC(=O)C(NC(=O)c2ccc3c(c2)OCO3)C(C)C)c2ccccc2n1C (stereo not given) | inactive: -5.11% |
| CN1CCN(CCOc2ccc(Cc3ccccc3)cc2)CC1 | inactive: -5.08% |
| O=C(NCc1ccon1)C1CCC(=O)N(Cc2cccc(C(F)(F)F)c2)C1 (stereo not given) | inconclusive: -36.6% |
| Cc1ccc(NC(=O)CO/N=C(\N)c2nonc2N)cc1C | inconclusive: -35.8% |
| O=C(O)/C=C/C(=O)Nc1ccc(NC(=O)c2ccccc2)c(Cl)c1 | inconclusive: -35.2% |
| COc1ccc(C(CC(=O)O)c2ccc3c(c2)OCO3)cc1 (stereo not given) | inactive: 15.2% |
| O=C(NCC(c1cccs1)N1CCOCC1)c1cccc([N+](=O)[O-])c1 (stereo not given) | inconclusive: -34.4% |
| CCC(=O)Nc1nnc(SCC(=O)Nc2ccc3c(c2)OCO3)s1 | inconclusive: -30.1% |
| CC(C)NS(=O)(=O)c1ccc(OCC(=O)NCc2ccc3c(c2)OCO3)c(Cl)c1 | inconclusive: -35.7% |
| Cc1nn(CC(=O)NC2CCCCC2)c(C)c1[N+](=O)[O-] | inconclusive: -37.5% |
| O=S(=O)(c1ccccc1)c1nc(Nc2cccc(O)c2)sc1Cl | inconclusive: -37% |
| CCCN1C(=O)/C(=C/c2c(NCCCOC(C)C)nc3c(C)cccn3c2=O)SC1=S | inactive: 22.3% |
| Oc1c(CN2CCOCC2)ccc2ccccc12 | inactive: -0.38% |

| Structure (SMILES) | activity change, negative = inhibition |
| --- | --- |
| O=C(COc1cccc(Br)c1)N/N=C1\CCCc2ccccc21 | inconclusive: -32% |
| O=C(c1ccc(F)cc1)C1CCN(S(=O)(=O)c2ccccc2)CC1 | inconclusive: -30.6% |
| Cc1cccc(-n2nc(C)c3c(C(=O)O)cc(-c4cccs4)nc32)c1 | inconclusive: -30.1% |
| CCCCCC(=O)NC(=S)Nc1ccc(N2CCOCC2)cc1 | inconclusive: -36.6% |
| Cc1ccc(-n2ncc(C(=O)Nc3ccc4c(c3)OCCO4)c2C2CCN(C(=O)OC(C)(C)C)CC2)cc1 | inconclusive: -34.6% |
| N#CCCN1CCN(S(=O)(=O)c2ccc(S(=O)(=O)NCC3CCCO3)cc2)CC1 (stereo not given) | inconclusive: -39.1% |
| CCCS(=O)(=O)c1nc(S(=O)(=O)c2ccc(C)cc2)c(N(CC)CC)s1 | inconclusive: -31.2% |
| Cc1ccnc2nc(C(=O)OCC(=O)Nc3ccc4c(c3)OCCO4)nn12 | inactive: 5.63% |
| CCOC1=C2CN(S(=O)(=O)c3ccc(C)cc3)[C@@H](c3ccc(CC)cc3)C[C@H]2[C@H]2C(=O)N(c3ccccc3)C(=O)[C@H]2C1 | inconclusive: -41.4% |
| O=C(CCn1c(=O)[nH]c2ccsc2c1=O)N1CCN(c2cccc(Cl)c2)CC1 | inactive: -9.83% |
| CCOC(=O)c1ccc(NC(=O)CCn2c(=O)c3cccn3c3ccccc32)cc1 | inconclusive: -38.3% |
| O=C(Nc1ccc(Nc2ccccc2)cc1)c1ccccc1 | inconclusive: -40% |
| Cc1ccc(C)c(Cn2c3ccccc3c3cnn(CC(=O)NCCCc4ccccc4)c(=O)c32)c1 | inconclusive: -31% |
| CCCNC(=S)Nc1ccc(Cl)cc1Cl | inconclusive: -37.9% |
| CCOc1ccc(NC(=S)C(C#N)=C2N(C)c3ccccc3N2C)cc1 | inconclusive: -31.8% |
| Cc1ccc(CNC(=O)c2ccc(OCC(C)C)cc2)n1C | inconclusive: -30.3% |
| Cc1cccc(S(=O)(=O)NCCC(=O)OCC(=O)Nc2ccc(C#N)cc2)c1 | inconclusive: -30% |
| O=C(NCc1cccnc1)NC(C(F)(F)F)C(F)(F)F | inconclusive: -31.5% |
| O=C1c2ccccc2NC2(CCCCC2)N1c1ccc(O)cc1 | inconclusive: -43.2% |
| Cn1nnnc1SCC(=O)Nc1ccc(C(=O)N2CCN(Cc3ccccc3F)CC2)cc1 | inconclusive: -34.6% |
| Cc1ccccc1NC(=O)Nc1ccc2nc(N3CCN(C)CC3)cc(C)c2c1 | inconclusive: -33.7% |
| CCCCN(C(=O)COC(=O)c1ccc(C)s1)c1c(N)n(CCC)c(=O)[nH]c1=O | inconclusive: -30.4% |

| Structure (SMILES) | activity change, negative = inhibition |
| --- | --- |
| Cn1c(Cn2c(=O)sc3ccccc32)nnc1SCc1ccccc1F | inconclusive: -30.2% |
| Cn1c(SCC(=O)N2CCOCC2)nnc1-c1ccccc1 | inconclusive: -39.7% |
| N#C/C(=C\c1ccc(N2CCCCC2)o1)C(=O)Nc1cccc(Br)c1 | inconclusive: -43.4% |
| O=C(CCCn1nnc2ccccc2c1=O)N[C@H](C(=O)O)c1ccccc1 | active: -54.3% |
| O=C([C@@H]1CCCN1C(=O)c1cccs1)N1CCN(S(=O)(=O)c2cccc(F)c2)CC1 | inconclusive: -33.2% |
| COc1ccccc1NC(=O)NCCN1C(=O)C2C3C=CC(C3)C2C1=O (stereo not given) | inconclusive: -32.8% |
| C[C@@H]1CN([C@@H](C)CO)C(=O)c2cc(C#Cc3ccccc3)cnc2O[C@@H]1CN(C)Cc1ccccn1 | inconclusive: -43.9% |
| CC1CCN(CCCNC(=O)C2CCN(S(=O)(=O)N3CCC4(CC3)OCCO4)CC2)CC1 | inconclusive: -38.9% |
| COc1ccc(C(=O)Nc2ccc3nc(SCC(=O)N4CCOCC4)sc3c2)cc1 | inconclusive: -37.1% |
| COc1ccccc1NC(=S)NNC(=O)c1nn(C)c(C)c1Cl | inconclusive: -30.3% |
| CCOC(=O)c1c(C)c(C(=O)NCc2cccs2)c(C)n1C | active: -56.7% |
| Cc1ccccc1NC1=C/C(=N\S(=O)(=O)c2cccs2)c2ccccc2C1=O | inactive: 32.8% |
| CC(C)NC(=O)c1sc2ncccc2c1-n1cccc1 | inconclusive: -32.7% |
| CCOc1cc(-c2ccc(OC(=O)c3ccc(C)cc3)c(OC)c2)cc(=O)c2c(C)oc(C)c12 | inactive: -6.15% |
| Cc1cc(C)c(S(=O)(=O)Nc2ccc(-c3ccc(N4CCCCCC4)nn3)cc2)cc1C | inactive: 33.8% |
| O=S(=O)(Nc1ccc(F)cc1F)c1ccc(-n2cccn2)cc1 | inactive: 22.1% |
| Cc1ccc(NC(=O)/C(C#N)=C/c2ccc(-c3ccc(Cl)c(C(=O)O)c3)o2)cc1C | inactive: 12.1% |
| CCOc1cccc(NC(=O)C2CC(=O)N(CC)C(=Nc3ccc(F)cc3)S2)c1 (stereo not given) | inactive: -20.8% |
| COc1cccc(NC(=O)C2CCCN(S(=O)(=O)c3cn(C(C)C)cn3)C2)c1 (stereo not given) | inconclusive: -35.5% |
| O=C(C1CCN(C2CC(=O)N(c3cccc(Cl)c3)C2=O)CC1)N1CCCCCC1 (stereo not given) | inconclusive: -35.6% |
| Cc1ccc(OCC(=O)N2N=C(c3ccncc3)CC2(O)C(F)(F)F)cc1C (stereo not given) | inconclusive: -41.6% |
| Cc1cc(=O)n2nc(N3CCCC(C(=O)NCc4ccc(F)cc4)C3)sc2n1 (stereo not given) | inactive: 5.87% |

Of the compounds above, 2 have a nitro group on carbon.

| Structure (SMILES) | activity change, negative = inhibition |
| --- | --- |
| O=C(NCC(c1cccs1)N1CCOCC1)c1cccc([N+](=O)[O-])c1 (stereo not given) | inconclusive: -34.4% |
| Cc1nn(CC(=O)NC2CCCCC2)c(C)c1[N+](=O)[O-] | inconclusive: -37.5% |

The listing continues.

| Structure (SMILES) | activity change, negative = inhibition |
| --- | --- |
| O=C(NCC(=O)N1CCc2ccccc2C1)c1ccc(Cl)cc1Cl | inconclusive: -41.2% |
| Cc1cc(=O)n2nc(N3CCC(C(=O)Nc4ccc(C)c(Cl)c4)CC3)sc2n1 | inconclusive: -31.2% |
| COc1ccc(CNC(=O)CCS(=O)(=O)c2ccc3c(c2)oc(=O)n3C)cc1 | inconclusive: -31.5% |
| O=c1[nH]cccc1-c1nc2ccccc2[nH]1 | inconclusive: -31.9% |
| CCOC(=O)N1CCC(NC(=O)c2ccc3c(c2)N(Cc2ccc(F)cc2)C(=O)c2ccccc2S3(=O)=O)CC1 | inconclusive: -30.8% |
| CC1C/C(=C/c2ccncc2)C(=O)/C(=C/c2ccncc2)C1 (stereo not given) | inactive: 44.7% |
| COc1ccc(CNCc2ccc(C)cc2)c(OC)c1 | inconclusive: -34.7% |
| CCCCN(C(=O)C1CSC2(C)CCC(=O)N12)c1c(N)n(CC(C)C)c(=O)[nH]c1=O (stereo not given) | inconclusive: -30.6% |
| COc1cccc(CNC(=O)C2=Cc3cccc(OC)c3OC2)c1 | inconclusive: -30.4% |
| Cc1cc(Cl)nc(-c2ccccc2)n1 | inconclusive: -30.7% |
| CC1(C)CC(=O)N(c2cccc(C(F)(F)F)c2)C(=O)C1 | inconclusive: -36.5% |
| Cc1ccc(-n2ncc3c2CCCC3NC(=O)c2csnn2)cc1C (stereo not given) | inconclusive: -40% |
| O=C(COc1ccc(F)cc1Br)Nc1ccccc1N1CCCC1 | inactive: -1.91% |
| CN(Cc1ccccc1)S(=O)(=O)c1cc2c3c(c1)CCN3C(=O)CC2 | inconclusive: -37.1% |
| Fc1ccc(-c2ccnc3nc(N4CCOCC4)nn23)cc1 | inconclusive: -36.9% |
| Cc1cccc(CSc2nc3c(c(=O)[nH]2)C(c2cccc(O)c2)CC(=O)N3)c1 (stereo not given) | inconclusive: -30.2% |
| CCCCc1cc(=O)oc2cc(OCc3nn[nH]n3)c(Cl)cc12 | inconclusive: -39.6% |
| COCCN1CCN(c2c(C)c(C)nc3cc(-c4cccc(OC)c4)nn23)CC1 | inconclusive: -42% |
| Cc1ccc(S(=O)(=O)n2nc(OC(=O)c3c(-c4ccccc4Cl)noc3C)cc2N)cc1 | inactive: -10.3% |

Retrieved by compound from above, 4 records:

| Structure (SMILES) | activity change, negative = inhibition |
| --- | --- |
| O=C(NCC(=O)N1CCc2ccccc2C1)c1ccc(Cl)cc1Cl | inconclusive: -41.2% |
| Cc1ccc(-n2ncc3c2CCCC3NC(=O)c2csnn2)cc1C (stereo not given) | inconclusive: -40% |
| COc1ccc(CNC(=O)CCS(=O)(=O)c2ccc3c(c2)oc(=O)n3C)cc1 | inconclusive: -31.5% |
| Cc1ccc(S(=O)(=O)n2nc(OC(=O)c3c(-c4ccccc4Cl)noc3C)cc2N)cc1 | inactive: -10.3% |
